PubChem BioAssay AID1259405 – NCATS, 2018
Here is a random part of about 50,000 reagents. About 4,000 of them (8%) count as active. 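Mouse siRNA library applied to hamster cells; one well for each siRNA.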 A number with no mark means an inactive call. The numbers tell different reagents against one gene apart.

- Assay: 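Mouse-designed siRNAs used to find CHO productivity engineering targets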 (primary screen)
- System: Chinese hamster CHO-K1 ovary cells with stable secreted eGFP expression
- Reagents: single siRNA against mouse genes, 0.8 pmol siRNA per well (2 µl of 400 nM stock)
- Duration: 3 days
- Detection: 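Per-well intracellular GFP measured by laser scanning cytometry, plus viability from ATP luminescence, each relative to plate median of non-targeting control wells, in %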
- Direction: GFP, % of control: higher = more GFP per well, higher productivity; viability (ATP), % of control: higher = more viable cells (more ATP)
- Call rule: 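Called active when intracellular GFP, relative to negative control, is at or above 120%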

Tspan9 (tetraspanin 9) #1 — GFP, % of control = 87.7; viability (ATP), % of control = 45
Tspan9 (tetraspanin 9) #2 — GFP, % of control = 48.1; viability (ATP), % of control = 31.9
Tspan9 (tetraspanin 9) #3 — GFP, % of control = 78.8; viability (ATP), % of control = 62.8
Aarsd1 (alanyl-tRNA synthetase domain containing 1) #1 — GFP, % of control = 146 (active); viability (ATP), % of control = 103
Aarsd1 (alanyl-tRNA synthetase domain containing 1) #2 — GFP, % of control = 66.7; viability (ATP), % of control = 70.5
Aarsd1 (alanyl-tRNA synthetase domain containing 1) #3 — GFP, % of control = 74; viability (ATP), % of control = 59.1
Chpt1 (choline phosphotransferase 1) #1 — GFP, % of control = 110; viability (ATP), % of control = 102
Chpt1 (choline phosphotransferase 1) #2 — GFP, % of control = 116; viability (ATP), % of control = 162
Chpt1 (choline phosphotransferase 1) #3 — GFP, % of control = 94.6; viability (ATP), % of control = 109
Srl (sarcalumenin) #1 — GFP, % of control = 98.3; viability (ATP), % of control = 115
Srl (sarcalumenin) #2 — GFP, % of control = 127 (active); viability (ATP), % of control = 87.7
Mafk (Maf bZIP transcription factor K) #1 — GFP, % of control = 73.3; viability (ATP), % of control = 83.4
Mafk (Maf bZIP transcription factor K) #2 — GFP, % of control = 75.3; viability (ATP), % of control = 70.5
Mafk (Maf bZIP transcription factor K) #3 — GFP, % of control = 65; viability (ATP), % of control = 58.8
H2-Q10 (histocompatibility 2, Q region locus 10) #1 — GFP, % of control = 13.2; viability (ATP), % of control = 6.43
H2-Q10 (histocompatibility 2, Q region locus 10) #2 — GFP, % of control = 74.8; viability (ATP), % of control = 73.5
H2-Q10 (histocompatibility 2, Q region locus 10) #3 — GFP, % of control = 129 (active); viability (ATP), % of control = 67.2

A run of entries taken from the entries so far, for reference:
Tspan9 (tetraspanin 9) #3 — GFP, % of control = 78.8; viability (ATP), % of control = 62.8
Aarsd1 (alanyl-tRNA synthetase domain containing 1) #1 — GFP, % of control = 146 (active); viability (ATP), % of control = 103
